Assay results taken from the supplement of paper PMC5949888.
Most values lie at the floor of the assay. Slopes are relative: functional sequences can read slightly below zero.

system: Saccharomyces cerevisiae PS128 hsf1 delta, HSF1(1-493) fusion; experiment: growth estimate (transactivation domain function in HSF1 fusion, heat-shock survival) (a.u. (slope of normalised read count over time)); higher = stronger growth at 37°C, i.e. more transactivation activity; details: library: random library
Protocol: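 Random 60-nt DNA library encoding peptides of up to 20 aa, fused to the C-terminus of yeast HSF1 residues 1-493 (C-terminal TAD deleted) and expressed from the native HSF1 promoter on a CEN plasmid in hsf1-deleted S. cerevisiae PS128. Cells were selected at 37°C on -trp 5-FOA plates for 0, 2, 4, 6 and 8 days and amplicons were sequenced. Growth estimate is the slope of a robust linear fit of total-sum-normalised read counts (normalised to the first time point) over time, using at least 2 replicates. Sequences are classed functional (TAD activity) above a threshold of -0.13, set from stop-codon control sequences.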

| Substance | growth estimate |
| --- | --- |
| CLLEQDGPNTLDFSWVNCPA | -0.245 |
| CLLLADRSRPVMNEVKNVKE | < -0.25 |
| CLLLKNCVRPCATPTTLQSA | < -0.25 |
| CLLNEKAQFK | < -0.25 |
| CLLPTRCLYEHRIQDGICLI | < -0.25 |
| CLLQDTVTSGFWAMRQEVAK | < -0.25 |
| CLLSLEYVRSKNHFVM | < -0.25 |
| CLQCHYD | < -0.25 |
| CLRNAEASCVSVKCRGDRRF | < -0.25 |
| CLRSSLLVCVETALAWFH | < -0.25 |
| CLRYCRE | < -0.25 |
| CLSGSTKVVMHNGGDTGIP | -0.206 |
| CLSSDGYGDRVPLHGDIKVL | < -0.25 |
| CLWYQY | 3.05 |
| CMAITWVATLKYRLRDGNCI | < -0.25 |
| CMC | -0.25 |
| CMDFVDCKGTC | < -0.25 |
| CMDWHSID | < -0.25 |
| CMGGYR | < -0.25 |
| CMMSFCERVGQYRDIVSVAP | < -0.25 |
| CMRLGRVVSPS | < -0.25 |
| CMSRQLQIYIILSQASRSVV | < -0.25 |
| CMVCSRVIWA | < -0.25 |
| CNAAVPKRRKRL | < -0.25 |

A different layout for part of the listing above:
Substance,growth estimate
CLLLADRSRPVMNEVKNVKE,< -0.25
CLLPTRCLYEHRIQDGICLI,< -0.25
CLLSLEYVRSKNHFVM,< -0.25
CMVCSRVIWA,< -0.25

More records.

| Substance | growth estimate |
| --- | --- |
| CNAQLRV | < -0.25 |
| CNGAHAEPKSLSVD | -0.246 |
| CNGLESFARKFGENIAIVPK | < -0.25 |
| CNGLRSFEDKY | < -0.25 |
| CNNAMYF | < -0.25 |
| CNQHAV | < -0.25 |
| CNSAHMR | < -0.25 |
| CNSKYRDQYILGGFAVLTYG | < -0.25 |
| CPAEKVNDQHLIL | < -0.25 |
| CPCGKLRGNG | < -0.25 |
| CPHDTVRGNFSDNSSRNV | < -0.25 |
| CPHRPWKSERVENMSSFIPK | < -0.25 |
| CPIFSDGRNYWLPFRGRLAT | < -0.25 |
| CPKAFECG | < -0.25 |
| CPNAVSS | < -0.25 |
| CPNGNCGLCWGITEG | < -0.25 |
| CPPGEQVDLCLVMRFSKERR | < -0.25 |
| CPTGYCKDVLVVRRYILQGG | < -0.25 |
| CQAFCCM | < -0.25 |
| CQAGKITCVTDIGQLFCGKN | < -0.25 |
| CQARTACGRIRGDRLRWG | < -0.25 |
| CQDGPPYDL | < -0.25 |
| CQEIADTIWVLCRATKCCSR | < -0.25 |
| CQFTE | -0.184 |

| Substance | growth estimate |
| --- | --- |
| CQGCWDEYERRSTRML | < -0.25 |
| CQGRVGGALYFCLVARPCL | < -0.25 |
| CQP | < -0.25 |
| CQPSWTSMRDVIRRARFLPV | < -0.25 |
| CQRHITMEGQKCVGDF | < -0.25 |
| CQRQLHGRGQDRYYAIFLDP | < -0.25 |
| CQSDRPQQGRDVLPLQ | < -0.25 |
| CQSGGAVIDRIVYLRRELNV | < -0.25 |
| CQVLYKDS | < -0.25 |
| CQVVPTSSKQTDAPLNV | < -0.25 |
| CRAAASSRWKAGGGL | < -0.25 |
| CRALTYPDTVNANAQQTGRG | < -0.25 |
| CRAPGIRGWLPEDRPQEAAG | < -0.25 |
| CREVLPGSSRRGA | < -0.25 |
| CRFRWQLAANVRRKVQWYV | < -0.25 |
| CRGDSEKT | < -0.25 |
| CRGFDGKRMTDVPVWVLLRK | < -0.25 |
| CRGFTAIYKNPISPGELSGG | < -0.25 |
| CRGLRLNV | < -0.25 |
| CRGVVAETPDPSRIRKASFP | < -0.25 |
| CRISSRVLSYARDC | < -0.25 |
| CRLMTLRRALTGCFRGPLVP | < -0.25 |
| CRLTRCLGPYLMDRPVLHSL | < -0.25 |
| CRNLVELS | < -0.25 |

| Substance | growth estimate |
| --- | --- |
| CRPSLARIKFAERARK | < -0.25 |
| CRR | < -0.25 |
| CRRHRVGVSETNCRLTQCIP | < -0.25 |
| CRRITSRCRI | -0.246 |
| CRRKVLLRQQRLYCWQELVH | < -0.25 |
| CRRPGWIFSGSVGDNRSWCL | < -0.25 |
| CRRVF | -0.248 |
| CRRVV | < -0.25 |
| CRSGTSVPD | < -0.25 |
| CRSSICILLHIDTHLAPLIL | < -0.25 |
| CRTHKGKRV | < -0.25 |
| CRVECGNGDLSRHLGGILAV | < -0.25 |
| CRVNKLFSRTLY | < -0.25 |
| CRVQGNDVRGAGVVCVRQ | < -0.25 |
| CRWSAQSAGKPISLLV | < -0.25 |
| CSASLWANPSLVDTRLISDV | < -0.25 |
| CSCGHVSNRARGPVIVLVQQ | < -0.25 |
| CSCYQICVGLLVEVELRTYG | < -0.25 |
| CSDSRGWLDKSNKNPFLGSR | < -0.25 |
| CSEFLELPAERH | < -0.25 |
| CSHGL | < -0.25 |
| CSHGLGERAIVPALWQ | < -0.25 |
| CSIICLWFSGRPLV | < -0.25 |
| CSIVGWPRKVVERATPWFVH | < -0.25 |

| Substance | growth estimate |
| --- | --- |
| CSL | < -0.25 |
| CSLAGAGT | < -0.25 |
| CSLIMTSHSAPHGLEASCCA | < -0.25 |
| CSLRGEKIG | < -0.25 |
| CSMGKGYVPGDKVSSYLQ | < -0.25 |
| CSNQFDYRGRLCSTLSMVSC | < -0.25 |
| CSPVRSLFCGAVCW | < -0.25 |
| CSQVTGPWGR | < -0.25 |
| CSRAS | < -0.25 |
| CSRGYRCDGVK | < -0.25 |
| CSRLQLGARR | < -0.25 |
| CSRVKVPLCLF | -0.243 |
| CSSVTDRYEQGRT | < -0.25 |
| CSVL | < -0.25 |
| CSYRDLCRNKATKEVNKRFV | < -0.25 |
| CTASLALKKSRDTLEGLSLV | < -0.25 |
| CTCQVEL | < -0.25 |
| CTEVMPVNRSECIQNTGKGK | < -0.25 |
| CTGIVGRVL | < -0.25 |
| CTGKRRERRGEPAFK | < -0.25 |
| CTGQPNDESKV | < -0.25 |
| CTHRTKVDVRTVEGHRTLTQ | < -0.25 |
| CTKKSWGL | < -0.25 |
| CTLG | < -0.25 |

| Substance | growth estimate |
| --- | --- |
| CTLIPNVGGKAQSIHNYCLS | < -0.25 |
| CTPAGWMCGVSST | < -0.25 |
| CTQGGVSGHRRGRQAVFTTS | < -0.25 |
| CTRAWSKMCLIMYISMITDS | < -0.25 |
| CTSDTRANDWGR | < -0.25 |
| CTSTKQKNWTSSNRSRGLGL | < -0.25 |
| CTTETACPGWDATMYSHLPR | < -0.25 |
| CTTGTLG | < -0.25 |
| CTWDAMSVWFGKGATSEGCR | < -0.25 |
| CVCSRVRDPTYLHTGVGEPT | < -0.25 |
| CVDSTEHWPGNLYNGGRDST | < -0.25 |
| CVEEVGYD | < -0.25 |
| CVEIPFGCTSWVARPRVRNI | < -0.25 |
| CVFYELQFRSR | < -0.25 |
| CVGALGL | < -0.25 |
| CVGLREAWAHGRPSVGVVA | < -0.25 |
| CVISTAASGLTGVKAV | < -0.25 |
| CVKEP | < -0.25 |
| CVLAKPTRAGRLNKN | < -0.25 |
| CVLSGSLGPRTAGLYGSSDK | < -0.25 |
| CVNLNAARCAEFELVRGFDG | < -0.25 |
| CVPASELGPGPASISTVIRD | < -0.25 |
| CVQKACAMALR | < -0.25 |
| CVQTSWLG | -0.234 |

| Substance | growth estimate |
| --- | --- |
| CVRNC | < -0.25 |
| CVRRITKCVWA | < -0.25 |
| CVRS | < -0.25 |
| CVS | < -0.25 |
| CVSFQRLF | < -0.25 |
| CVSL | < -0.25 |
| CVSSVCSGRSDTVNAFFPPA | < -0.25 |
| CVTTPLHTFIVR | < -0.25 |
| CVVFGQTPVDRMYINAQEVL | < -0.25 |
| CVVNLFTVVRAGFGMPGLGL | < -0.25 |
| CVVVVREFRLLRR | < -0.25 |
| CVWTPAEGMSPPGDATAHSV | < -0.25 |
| CWGDMENRIVLAPPGTESIR | < -0.25 |
| CWGRNLWGLRGSLPHAYRGH | < -0.25 |
| CWIIYRLWLRLGISSTRPPP | < -0.25 |
| CWKGTCIGKDIVHGIGRTGS | < -0.25 |
| CWKTHSLI | < -0.25 |
| CWKVTGSWGFRK | < -0.25 |
| CWNRTFCSC | < -0.25 |
| CWPSEAATGASPCGLYVTLS | < -0.25 |
| CWRPPRLSEPVMQKFAAWDS | < -0.25 |
| CWSS | < -0.25 |
| CYGRICESFAPAPIIASGTS | < -0.25 |
| CYLHYTTSGDVEMKRLAPRT | < -0.25 |

| Substance | growth estimate |
| --- | --- |
| CYMKVSLGRSARSLDITFQM | < -0.25 |
| CYPN | < -0.25 |
| CYPVLRGAIVGKRVMLCWDS | < -0.25 |
| CYSH | < -0.25 |
| CYSRDT | < -0.25 |
| DAANSLCFRPFICRLKGLGR | < -0.25 |
| DADEGRFEPPSRLS | < -0.25 |
| DAFYGVSRHSSADAPVCSDQ | < -0.25 |
| DALHGQAHLGTLLTGSIGLA | < -0.25 |
| DALVLVLVPSD | < -0.25 |
| DANSESSFTALIRRRSACAR | < -0.25 |
| DAPSSRYI | < -0.25 |
| DARFFLFSGLVVPCKC | < -0.25 |
| DASRPQGSRSSGESKGITAC | < -0.25 |
| DASWSP | < -0.25 |
| DCAILCGINVFEA | < -0.25 |
| DCAWLALPSRRHWPCRKFVR | < -0.25 |
| DCCFHCGRIEPGVIISDAFH | < -0.25 |
| DCDYGGVCPDRFERSWTG | < -0.25 |
| DCF | < -0.25 |
| DCICSLSHGSVLSRIVLATF | < -0.25 |
| DCIITLSRSQRKTWRP | < -0.25 |
| DCIRASVSWTCRKQRYTASL | < -0.25 |
| DCKTLWRTIPGISDILSDIK | < -0.25 |

Six entries from above, tab-delimited.
Substance	growth estimate
DARFFLFSGLVVPCKC	< -0.25
DASRPQGSRSSGESKGITAC	< -0.25
DASWSP	< -0.25
DCAILCGINVFEA	< -0.25
DCAWLALPSRRHWPCRKFVR	< -0.25
DCCFHCGRIEPGVIISDAFH	< -0.25
